Laboratory results from publication PMC3143072, “DNA binding activities of the Herves transposase from the mosquito Anopheles gambiae”.

Target: T1, Herves transposase (Anopheles gambiae) (UniProt Q5QIT5)
T1 sequence (looked up): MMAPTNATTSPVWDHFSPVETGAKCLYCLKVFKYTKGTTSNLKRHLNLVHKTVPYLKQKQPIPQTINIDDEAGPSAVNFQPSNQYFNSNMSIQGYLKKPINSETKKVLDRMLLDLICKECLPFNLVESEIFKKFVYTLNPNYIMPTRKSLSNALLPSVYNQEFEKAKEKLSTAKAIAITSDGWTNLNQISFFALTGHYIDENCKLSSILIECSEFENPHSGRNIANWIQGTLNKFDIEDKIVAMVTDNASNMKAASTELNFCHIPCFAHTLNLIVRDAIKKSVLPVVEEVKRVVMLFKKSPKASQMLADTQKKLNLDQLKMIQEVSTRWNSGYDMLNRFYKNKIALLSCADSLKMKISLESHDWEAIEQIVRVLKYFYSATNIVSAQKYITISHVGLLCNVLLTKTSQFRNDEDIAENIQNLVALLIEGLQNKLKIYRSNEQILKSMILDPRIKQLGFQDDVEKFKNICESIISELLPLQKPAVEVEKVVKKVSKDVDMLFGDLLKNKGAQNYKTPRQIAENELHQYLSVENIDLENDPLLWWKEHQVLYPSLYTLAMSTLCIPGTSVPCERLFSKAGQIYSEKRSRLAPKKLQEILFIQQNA
Test: competition with a labelled probe
Conditions: vs (CGATTCAT)4 probe, EMSA: 16 mM Tris pH 8.0, 150 mM NaCl, 1 mM DTT, 0.25% Triton X, 0.2 ug BSA, 0.4 ug T3 ss oligo, 0.5 ug poly(dI-dC), 4 C, 100 nM DNA, 850 nM transposase, recombinant protein, residues 1-603, protein details: His tag (pBAD myc/HisA vector)

| Sequence | binding result (partial) | binding result (did not compete fully, weak) |
| --- | --- | --- |
| CGATTCACCGATTCACCGATTCACCGATTCAC (double strand) [(CGATTCAC)4] | binds more weakly | – |
| CGTTCATCGTTCATCGTTCATCGTTCAT (double strand) [(CGTTCAT)4] | – | binds more weakly |

The comparison behind a weaker result is the experiment's own reference, which may not be listed here. Where a protein sequence is shown, tags need not be part of it.
